Assay results as given in patent US6713506B2, “Tea polyphenol esters and analogs thereof for cancer prevention and treatment” (University of South Florida, priority 2000, dated 2004).

Tested on: purified 20S proteasome
Experiment: HPLC analysis of cleavage of tea polyphenols by purified 20S proteasome
Type: biochemical
[1] = ECG 0.5 mM, 12 h with 20S proteasome

Q: Which results are given for `O=C(O[C@@H]1Cc2c(O)cc(O)cc2O[C@@H]1c1cc(O)c(O)c(O)c1)c1cc(O)c(O)c(O)c1` [EGCG, (−)-epigallocatechin-3-gallate]?
A: gallic acid-like peak, concentration as % of EGCG (2 h incubation): < 5%; decrease in the level of EGCG (2 h incubation with 20S proteasome): 40%; gallic acid-like peak, equivalent to % of EGCG (4 h incubation): 13%; disappearance of EGCG (4 h incubation with 20S proteasome): 80%; gallic acid-like product, level equivalent to % of EGCG (6 h or longer incubation): 20-25%; disappearance of EGCG (6 h or longer incubation with 20S proteasome): > 95%

Q: For (−)-epicatechin-3-gallate [ECG], which “decrease in levels of ECG” value [1] is on record?
A: Its value is about 20%.

Q: And the “increase in levels of both gallic acid-like and EC-like products” value [1]?
A: Its value is 3-4%.

Q: `Oc1cc(O)c2c(c1)O[C@H](c1cc(O)c(O)c(O)c1)[C@H](O)C2` [EGC, (−)-epigallocatechin] was tested. Which “degradation by the 20S proteasome (in words)” value did it give?
A: Its value is “degraded”.
